# The shares of active, inactive and inconclusive entries below differ from those in the screen. Where the call is inconclusive, the potency comes from a doubtful curve fit. Calls of active or inactive are those of the source. Calls follow the shape of the dose curve; as a rule, active = well fitted inhibition curve with a large enough effect; inconclusive = small, poorly fitted or top-dose-only effect, or effect the other way; inactive = no such curve, though single readings can be large or run the other way.
# Assay: qHTS Assay for Inhibitors of Fructose-1,6-bisphosphate Aldolase from Giardia Lamblia: Giardia lamblia growth inhibition (AID 2785); also: nearly all actives have a fitted effect of over 70% in size
# Details: Giardia lamblia trophozoite growth inhibition; activity change, negative = inhibition: at 57.5 µM (top of the series)
# How it was run: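 G. lamblia WB trophozoites (100 cells/well) in modified TYI-S-33 medium, pH 7.0, were exposed to pin-transferred compounds or DMSO for 48 h at 37C in sealed bags. Viability was read as ATPlite luminescence after 20 min at room temperature.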
# % is scaled to controls: 0 for no effect and ±100 for the full control effect; potency is read from the fitted curve at half-maximal effect.
Compound,Potency,"activity change, negative = inhibition"
CCN(c1ccccc1)S(=O)(=O)c1ccc(C(=O)Nc2nnc(C3CC3)o2)cc1,active: 44.7 µM,–
Cc1ccccc1/C=N/n1c(-c2ccccn2)n[nH]c1=S,–,inactive: 3.77% [at 38.3 µM]
Cc1ccc(NC(=S)Nn2cnnc2)cc1,"inconclusive: 17.8 µM [inhibitor, partial curve, poor fit]",–
O=C(NC(=S)N1CCN(Cc2ccccc2)CC1)c1cccnc1,"inconclusive: 56.2 µM [inhibitor, single point]",–
COCc1cc(=O)[nH]c(-c2csc(C)n2)n1,–,inactive: 6.36% [at 38.3 µM]
CN(CCCCCCN(C)Cc1ccccc1O)Cc1ccccc1O,"inconclusive: 316 µM [inhibitor, partial curve, poor fit]",–
Cc1[nH]n(-c2ccccc2)c(=O)c1/C=N/Nc1nncc(-c2ccccc2)n1,"inconclusive: 50.1 µM [inhibitor, partial curve, poor fit]",–
Cn1cc(Br)c(C(=O)NC(=S)Nc2ccc(S(N)(=O)=O)cc2)n1,–,inactive: -26%
CCOCCCn1c(=O)c2ccccc2n2c(=S)[nH]nc12,–,inactive: 28.3%
CCCCN(C)S(=O)(=O)c1ccc(C(=O)Nc2nnc(C3=COCCO3)o2)cc1,"inconclusive: 44.7 µM [inhibitor, partial curve]",–
CN(CCOc1ccccc1)CC(=O)Nc1ccc(Cl)c(S(=O)(=O)N(C)C)c1,–,inactive: -16.2% [at 10.4 µM]
Cc1cccc(C(=O)OCCN2CCOCC2)c1,–,inconclusive: 48.7% [activator]
Cc1ccccc1C(N)c1ccncc1 (centres undefined),–,inactive: -8.58%
CC1CCCN(S(=O)(=O)c2ccc(C(=O)Nc3nnc(-c4ccncc4)o3)cc2)C1 (centres undefined),"inconclusive: 20 µM [inhibitor, partial curve, poor fit]",–
COc1ccccc1NCC(O)COc1ccc(C(C)(C)C)cc1 (centres undefined),–,inconclusive: 48.4% [activator]
S=c1[nH]nc(-c2ccccn2)n1/N=C/c1c(Cl)cccc1Cl,–,inactive: -9.24% [at 38.3 µM]
CC(C)N1CCc2c(sc(NC(=O)Cc3ccccc3)c2C(N)=O)C1,"inconclusive: 70.8 µM [inhibitor, partial curve]",–
C=CCNC(=S)N/N=C1\CCS(=O)(=O)c2ccccc21,–,inactive: -18.8%
C=CCc1ccc(OCCOc2cccc3ccc(C)nc23)c(OC)c1,"inconclusive: 50.1 µM [inhibitor, single point]",–
COc1ccc(NC(=O)Nc2ccc(N3CCOCC3)c3nonc23)c(OC)c1,"inconclusive: 44.7 µM [inhibitor, single point]",–

# Full records, quoted from the list.
# O=C(NC(=S)N1CCN(Cc2ccccc2)CC1)c1cccnc1 as listed: Potency: inconclusive: 56.2 µM [inhibitor, single point]
# CN(CCOc1ccccc1)CC(=O)Nc1ccc(Cl)c(S(=O)(=O)N(C)C)c1 as listed: activity change, negative = inhibition: inactive: -16.2% [at 10.4 µM]

# (further entries)

Compound,Potency,"activity change, negative = inhibition"
CC(=O)/C(=N\Nc1ccccc1)Sc1nncn1C,–,inactive: 17.1% [at 10.4 µM]
CCc1ccc(OCCn2ccnc2)cc1,"inconclusive: 3.55 µM [inhibitor, single point]",–
O=C(NC(=S)Nc1cccnc1Cl)c1ccc(F)cc1,"inconclusive: 8.91 µM [inhibitor, single point]",–
CCOc1ccc(NC(=S)NC(=O)c2cccnc2)c([N+](=O)[O-])c1,active: 35.5 µM,–
Cc1cccnc1NC(=S)Nc1ccc(F)cc1F,"inconclusive: 39.8 µM [inhibitor, partial curve, poor fit]",–
Cc1ccc(NC(=O)CN2CCC(NC(=O)c3ccccc3F)CC2)cc1C,"inconclusive: 4.47 µM [inhibitor, single point]",–
Cc1nnc(N/N=C/c2ccccn2)[nH]c1=O,active: 25.1 µM,–
CC1CN(C(=S)NC(=O)c2ccc([N+](=O)[O-])cc2)CC(C)O1 (centres undefined),active: 5.01 µM,–
CN(CCOc1ccccc1)CC(=O)Nc1ccc(Cl)cc1[N+](=O)[O-],"inconclusive: 8.91 µM [inhibitor, single point]",–
CCCc1nc2ccccc2c(=O)n1/N=C/c1ccc(O)c(O)c1,"inconclusive: 44.7 µM [inhibitor, single point]",–
O=C(NC(=S)Nc1ncccn1)c1ccc(F)cc1,"inconclusive: 50.1 µM [inhibitor, partial curve, poor fit]",–
CCc1cc(-c2n[nH]c(=S)n2N)n(C)n1,"inconclusive: 8.91 µM [inhibitor, single point]",–
CCc1nnc(N/N=C/c2ccccc2Cl)n1N,"inconclusive: 17.8 µM [inhibitor, partial curve, poor fit]",–
CN(C)c1ccc(C(=O)Nc2nnc(C3=COCCO3)o2)cc1,"inconclusive: 50.1 µM [inhibitor, single point]",–
O=C(Cc1ccccc1)NNC(=S)NC(=O)c1cccnc1,–,inactive: -22.1%
COc1cccc(CN2CCN(Cc3cc(OC)c(OC)c(OC)c3)CC2)c1OC,–,inconclusive: 35.7% [activator]
COc1ccc(Br)cc1CN1CCN(C(=O)c2ccco2)CC1,–,inconclusive: -31.2% [inhibitor]
COc1ccc(Cc2n[nH]c(=S)n2N)cc1OC,–,inactive: -6.33%
N/C(=N\NC(=O)Nc1ccccc1)c1ccccn1,–,inactive: -10.2% [at 10.4 µM]

# Reference: PubChem BioAssay (NCATS)
